# Primary screen of a compound library

Source: ChEMBL document CHEMBL3988442, “University of Dundee, Small-Polar-MMV Screening Library” (2021).

Each number is a percent effect as filed. How 0% and 100% were set is not recorded. Most values in the screen are low, and negative values occur. Compounds were drawn at random from those tested, without regard to their results. Two or more numbers in one place are separate tests of the same structure; such repeats can differ widely.

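Growth of Mycobacterium tuberculosis over 3 days (7H9 medium with glucose and tyloxapol); the read-out is not stated. Compounds at 50 µM. Direction is inferred from retests: higher values go with more growth inhibition. Of about 69,000 compounds tested this way, about 760 (1.1%) reached 50% or more in at least one test.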

{"structure": "COCCn1cc2c(n1)C(CNCc1ccco1)OCC2.O=C(O)C(F)(F)F.O=C(O)C(F)(F)F", "stereo": "stereo not given", "percent effect": -26.71}
{"structure": "CC(C)c1noc(C2CCN(C(=O)C3CCCO3)CC2)n1", "stereo": "stereo not given", "percent effect": "-25.25 & -4.172"}
{"structure": "CCc1nc(CN2CCCN(C(=O)c3ccco3)CC2)cs1", "percent effect": -20.41}
{"structure": "O=C(c1cscn1)N1CCC2(CC1)CN(c1ccccn1)CCO2", "percent effect": 13.89}
{"structure": "Cc1nc(C2CCNCC2)cc(N2CCOc3ccccc3C2)n1", "percent effect": 4.064}
{"structure": "COc1c(C2CCCN2C(=O)c2ccc(C#N)c(C)n2)c(C)nn1C", "stereo": "stereo not given", "percent effect": -11.55}
{"structure": "Cl.O=C(NCC1CCC2(CCNCC2)CO1)c1ccno1", "stereo": "stereo not given", "percent effect": "-11.59 & -5.893"}
{"structure": "O=C1NC2(CCNCC2)CC1c1cccnc1", "stereo": "stereo not given", "percent effect": -7.435}
{"structure": "Cc1ccc2[nH]c(=O)c(CNCCCN3CCOCC3)cc2c1", "percent effect": -11.68}
{"structure": "COCC(O)CN(C)c1cc(C(F)(F)F)nc(-c2cccnc2)n1", "stereo": "stereo not given", "percent effect": 18.62}
{"structure": "CCN1CC(C(=O)NCc2ccc3c(c2)nc(C)n3C)CCC1=O", "stereo": "stereo not given", "percent effect": -15.28}
{"structure": "CC(C)=CCn1ncc(N2CCCCC2)cc1=O", "percent effect": 3.736}
{"structure": "Cc1c[nH]c(C2COCCN2C(=O)c2n[nH]c(=O)c3ccccc23)n1", "stereo": "stereo not given", "percent effect": -26.12}
{"structure": "O=C(O)C(F)(F)F.O=C(O)C(F)(F)F.O=C1CC[C@]2(CC[C@@H](NC3CCOC3)CC2)N1Cc1ccncc1", "stereo": "stereo not given in full", "percent effect": 20.75}
{"structure": "CC(C)(N)c1cn(C2CCN(C3CCSCC3)CC2)nn1", "percent effect": -7.685}
{"structure": "CN(Cc1ccc(Br)s1)Cn1nc(-c2ccccc2)oc1=O", "percent effect": -13.24}
{"structure": "O=C(O)C(F)(F)F.[H][C@@]12CCCO[C@]1([H])[C@H](NS(C)(=O)=O)CN(Cc1c(C)noc1C)C2", "percent effect": "-2.373 & -0.146"}
{"structure": "Cn1cnc2c1CCN(Cc1nc(-c3ccsc3)no1)C2", "percent effect": 21.23}
{"structure": "CC1c2ncc(Cn3cncn3)n2CCN1C(=O)c1ccsc1", "stereo": "stereo not given", "percent effect": 13.34}
{"structure": "O=C(Cc1c[nH]c2ccccc12)N1CCN(C(=O)c2ccoc2)CC1", "percent effect": "-2.427 & 6.412"}
{"structure": "CN(Cc1ccccc1)c1cnn(CC2CCCCO2)c(=O)c1", "stereo": "stereo not given", "percent effect": -12.85}
{"structure": "Cc1cc(NC(=O)N2CCCC(CO)C2)nn1-c1ccccc1Cl", "stereo": "stereo not given", "percent effect": "-5.272 & 2.805"}
{"structure": "CCC(C)(CC(=O)O)NC(=O)Cc1ccccc1Br", "stereo": "stereo not given", "percent effect": -10.31}
{"structure": "Clc1snnc1CN1CCCC1Cn1cccn1", "stereo": "stereo not given", "percent effect": 8.089}
{"structure": "Cc1noc(C)c1C(=O)N1CCC2(CC1)CC(Oc1ccccc1)CO2", "stereo": "stereo not given", "percent effect": "3.048 & 21.92"}
{"structure": "COc1ccc(C2=CCN(C(=O)CN(C)Cc3ccoc3)CC2)cc1", "percent effect": 25.65}
{"structure": "CC(=O)N1CCN(c2ncnc3cc4c(cc23)OCCO4)CC1", "percent effect": 36.21}
{"structure": "Cc1nsc(N2CCCN(CC(=O)N(C)C3CC3)CC2)n1", "percent effect": -15.04}
{"structure": "c1ccc(-c2cc(CN3CCCCCC3c3ccco3)on2)nc1", "stereo": "stereo not given", "percent effect": 30.62}
{"structure": "CO[C@H]1CN(C(=O)c2cc3ccccc3[nH]2)CC[C@H]1N", "percent effect": "-14.23 & -10.04"}
{"structure": "O=c1[nH]c(-c2ccncc2)ncc1-c1ccnc(NC2CC2)n1", "percent effect": -71.41}
{"structure": "CC(=O)N1CCCN(CCCSCc2ccccc2)CC1", "percent effect": -20.51}
{"structure": "CCNC(=O)[C@@H]1C[C@@H](NC(=O)c2ccsc2)CN1CCCSC", "percent effect": 10.69}
{"structure": "CCC(CC)CN1CCCn2nc(CNC(=O)COC)cc2C1", "percent effect": "6.734 & 0.545"}
{"structure": "Cn1cnc(S(=O)(=O)NCCCN2CCCC2=O)c1Cl", "percent effect": "-36.55 & -5.286"}
{"structure": "O=C(O)C(F)(F)F.O=C(O)C(F)(F)F.c1csc(CN2CCCC3(COCCN(Cc4c[nH]nn4)C3)C2)c1", "stereo": "stereo not given", "percent effect": "-7.432 & -17.13"}
{"structure": "O=C(O)C(F)(F)F.O=C(O)C(F)(F)F.c1cncc(N2CCCC3(CCN(CCN4CCCC4)CC3)C2)c1", "percent effect": 1.059}
{"structure": "NC(=O)c1cncc(Oc2cccc(CN3CCCC3)c2Cl)n1", "percent effect": 27.32}
{"structure": "Fc1ccccc1Cc1noc(CN2CCC(N3CCSCC3)CC2)n1", "percent effect": -3.565}
{"structure": "[H][C@]12CC[C@]([H])(CN(Cc3[nH]cnc3C)C1)N(C(=O)CCn1cncn1)C2", "percent effect": -10.73}
{"structure": "Fc1cccc(-n2ccc(CN3CCCCC3Cn3cncn3)n2)c1", "stereo": "stereo not given", "percent effect": 36.64}
{"structure": "N#Cc1ccc(N2CCN(c3cnccn3)CC2)c(C(F)(F)F)c1", "percent effect": "-14.13 & -10.09"}
{"structure": "O=C(NC1CCN(C2CC2)C1)c1cn(-c2ccc(F)cc2)nn1", "stereo": "stereo not given", "percent effect": 3.766}

Once more, the final 2:

{"structure": "N#Cc1ccc(N2CCN(c3cnccn3)CC2)c(C(F)(F)F)c1", "percent effect": "-14.13 & -10.09"}
{"structure": "O=C(NC1CCN(C2CC2)C1)c1cn(-c2ccc(F)cc2)nn1", "stereo": "stereo not given", "percent effect": 3.766}